Reference: publication doi:10.1101/2024.06.13.598862 (bioRxiv, 2024)
These are yes or no findings as the source states them, for the method shown. Binding can be weak; no strength is given.

The chains behind the UniProt entries cited, without tags or fusion partners. Where a name states a change or a piece, a line headed by the entry shows the natural chain unless it says otherwise.
UniProt P10636: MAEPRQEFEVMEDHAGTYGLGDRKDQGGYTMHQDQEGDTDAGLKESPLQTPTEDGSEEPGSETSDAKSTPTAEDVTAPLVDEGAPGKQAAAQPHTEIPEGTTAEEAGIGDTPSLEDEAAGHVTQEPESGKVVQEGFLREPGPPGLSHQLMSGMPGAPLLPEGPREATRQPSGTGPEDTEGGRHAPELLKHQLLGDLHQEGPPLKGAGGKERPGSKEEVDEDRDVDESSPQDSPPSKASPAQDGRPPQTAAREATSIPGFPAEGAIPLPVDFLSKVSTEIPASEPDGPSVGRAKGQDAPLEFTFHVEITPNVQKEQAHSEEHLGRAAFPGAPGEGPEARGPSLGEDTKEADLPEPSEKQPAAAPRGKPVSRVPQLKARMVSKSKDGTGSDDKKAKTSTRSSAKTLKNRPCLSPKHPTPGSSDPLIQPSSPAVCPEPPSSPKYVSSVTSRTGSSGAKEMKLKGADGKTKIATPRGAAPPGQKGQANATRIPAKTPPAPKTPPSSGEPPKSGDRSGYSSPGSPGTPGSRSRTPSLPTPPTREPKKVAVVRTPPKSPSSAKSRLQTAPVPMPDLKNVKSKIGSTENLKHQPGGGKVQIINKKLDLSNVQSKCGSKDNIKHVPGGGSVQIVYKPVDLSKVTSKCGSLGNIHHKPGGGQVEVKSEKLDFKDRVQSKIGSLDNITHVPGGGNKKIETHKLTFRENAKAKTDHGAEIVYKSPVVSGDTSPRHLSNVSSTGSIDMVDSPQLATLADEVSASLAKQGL

How the values were obtained:
Experiment in all cases: co-phase separation
[1] = target: tau truncation, C-terminal fragment of tau (151-391) (human) (UniProt P10636)
[2] = target: tauΔPHF6* (deletion of the hexapeptide 275VQIINK280) (human) (UniProt P10636)
[3] = target: tauΔPHF6 (deletion of the hexapeptide 306VQIVYK311) (human) (UniProt P10636)

B1: Ydj1, yeast Hsp40 (natural protein, UniProt P25491 1-409, looked up)
chain: MVKETKFYDILGVPVTATDVEIKKAYRKCALKYHPDKNPSEEAAEKFKEASAAYEILSDPEKRDIYDQFGEDGLSGAGGAGGFPGGGFGFGDDIFSQFFGAGGAQRPRGPQRGKDIKHEISASLEELYKGRTAKLALNKQILCKECEGRGGKKGAVKKCTSCNGQGIKFVTRQMGPMIQRFQTECDVCHGTGDIIDPKDRCKSCNGKKVENERKILEVHVEPGMKDGQRIVFKGEADQAPDVIPGDVVFIVSERPHKSFKRDGDDLVYEAEIDLLTAIAGGEFALEHVSGDWLKVGIVPGEVIAPGMRKVIEGKGMPIPKYGGYGNLIIKFTIKFPENHFTSEENLKKLEEILPPRIVPAIPKKATVDECVLADFDPAKYNRTRASRGGANYDSDEEEQGGEGVQCASQ
binding [1]: binds | binding [2]: binds | binding [3]: binds weakly
